PubChem BioAssay AID1259308, NCATS, 2017
The whole screen tested about 59,000 reagents; below is an unselected part. About 1,510 of them (2.6%) were called active. 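Calls use total luciferase alone and ignore viability, so some active siRNAs may act by altering cell number.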 The numbers tell different reagents against one gene apart. Not all columns of the deposit are shown.

- Screen: 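Genes whose loss raises luciferase production in HEK293 cells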 (primary screen)
- System: human HEK293 embryonic kidney cells stably expressing firefly luciferase (HEK-CMV-Luc2-Hygro)
- Reagent: single siRNA against human genes, 0.8 pmol siRNA per well
- Time to read-out: 72 h
- Read-out: 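Luciferase light (ONE-Glo) measured on one replicate plate set and viability (CellTiter-Glo) on the other, scaled to a negative control siRNA, with robust z-scores and luciferase per cell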
- Reading the numbers: total luciferase, z-score and total luciferase, % of control: higher = more reporter protein produced
- Call rule: 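Active when the median/MAD z-score for overall luciferase is greater than 3; a gene was taken forward for validation with new siRNAs if at least two of its three siRNAs passed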
- Calls: active = raised luciferase; inactive = no rise

DEFB1 (defensin beta 1) #1: total luciferase, z-score = -1.45; total luciferase, % of control = 53; activity call = inactive
DEFB1 (defensin beta 1) #2: total luciferase, z-score = 0.705; total luciferase, % of control = 95.9; activity call = inactive
DEFB1 (defensin beta 1) #3: total luciferase, z-score = -0.0787; total luciferase, % of control = 80.3; activity call = inactive
WDTC1 (WD and tetratricopeptide repeats 1) #1: total luciferase, z-score = -0.413; total luciferase, % of control = 73.7; activity call = inactive
WDTC1 (WD and tetratricopeptide repeats 1) #2: total luciferase, z-score = -0.373; total luciferase, % of control = 74.5; activity call = inactive
WDTC1 (WD and tetratricopeptide repeats 1) #3: total luciferase, z-score = -0.567; total luciferase, % of control = 70.6; activity call = inactive
FUCA2 (alpha-L-fucosidase 2) #1: total luciferase, z-score = 0.386; total luciferase, % of control = 89.6; activity call = inactive
FUCA2 (alpha-L-fucosidase 2) #2: total luciferase, z-score = -0.971; total luciferase, % of control = 62.6; activity call = inactive
FUCA2 (alpha-L-fucosidase 2) #3: total luciferase, z-score = -0.2; total luciferase, % of control = 77.9; activity call = inactive
RAPGEF5 (Rap guanine nucleotide exchange factor 5) #1: total luciferase, z-score = 0.0127; total luciferase, % of control = 82.1; activity call = inactive
RAPGEF5 (Rap guanine nucleotide exchange factor 5) #2: total luciferase, z-score = 0.0468; total luciferase, % of control = 82.8; activity call = inactive
RAPGEF5 (Rap guanine nucleotide exchange factor 5) #3: total luciferase, z-score = -0.558; total luciferase, % of control = 70.8; activity call = inactive
RBP3 (retinol binding protein 3) #1: total luciferase, z-score = 0.507; total luciferase, % of control = 92; activity call = inactive
RBP3 (retinol binding protein 3) #2: total luciferase, z-score = -1.77; total luciferase, % of control = 46.7; activity call = inactive
RBP3 (retinol binding protein 3) #3: total luciferase, z-score = -0.992; total luciferase, % of control = 62.2; activity call = inactive
CNBD2 (cyclic nucleotide binding domain containing 2) #1: total luciferase, z-score = 0.532; total luciferase, % of control = 92.5; activity call = inactive
CNBD2 (cyclic nucleotide binding domain containing 2) #2: total luciferase, z-score = -0.675; total luciferase, % of control = 68.5; activity call = inactive
CNBD2 (cyclic nucleotide binding domain containing 2) #3: total luciferase, z-score = 0.573; total luciferase, % of control = 93.3; activity call = inactive
GET4 (guided entry of tail-anchored proteins factor 4) #1: total luciferase, z-score = 0.864; total luciferase, % of control = 99.1; activity call = inactive
GET4 (guided entry of tail-anchored proteins factor 4) #2: total luciferase, z-score = -0.111; total luciferase, % of control = 79.7; activity call = inactive
GET4 (guided entry of tail-anchored proteins factor 4) #3: total luciferase, z-score = 0.315; total luciferase, % of control = 88.2; activity call = inactive
DRD2 (dopamine receptor D2) #1: total luciferase, z-score = 0.713; total luciferase, % of control = 96.1; activity call = inactive
DRD2 (dopamine receptor D2) #2: total luciferase, z-score = -0.397; total luciferase, % of control = 74; activity call = inactive
DRD2 (dopamine receptor D2) #3: total luciferase, z-score = -0.949; total luciferase, % of control = 63; activity call = inactive
OR2D2 (olfactory receptor family 2 subfamily D member 2) #1: total luciferase, z-score = -0.448; total luciferase, % of control = 73; activity call = inactive
OR2D2 (olfactory receptor family 2 subfamily D member 2) #2: total luciferase, z-score = 0.0269; total luciferase, % of control = 82.4; activity call = inactive
OR2D2 (olfactory receptor family 2 subfamily D member 2) #3: total luciferase, z-score = -1.06; total luciferase, % of control = 60.8; activity call = inactive
PODXL2 (podocalyxin like 2) #1: total luciferase, z-score = 1.72; total luciferase, % of control = 116; activity call = inactive
PODXL2 (podocalyxin like 2) #2: total luciferase, z-score = 0.0651; total luciferase, % of control = 83.2; activity call = inactive
PODXL2 (podocalyxin like 2) #3: total luciferase, z-score = 1.45; total luciferase, % of control = 111; activity call = inactive
GIMAP5 (GTPase, IMAP family member 5) #1: total luciferase, z-score = 0.794; total luciferase, % of control = 97.7; activity call = inactive
GIMAP5 (GTPase, IMAP family member 5) #2: total luciferase, z-score = 0.306; total luciferase, % of control = 88; activity call = inactive
GIMAP5 (GTPase, IMAP family member 5) #3: total luciferase, z-score = -1.59; total luciferase, % of control = 50.3; activity call = inactive
CD109 (CD109 molecule) #1: total luciferase, z-score = -0.612; total luciferase, % of control = 69.7; activity call = inactive
CD109 (CD109 molecule) #2: total luciferase, z-score = 0.823; total luciferase, % of control = 98.3; activity call = inactive
CD109 (CD109 molecule) #3: total luciferase, z-score = -0.392; total luciferase, % of control = 74.1; activity call = inactive
DNAAF19 (dynein axonemal assembly factor 19) #1: total luciferase, z-score = -0.894; total luciferase, % of control = 64.1; activity call = inactive
DNAAF19 (dynein axonemal assembly factor 19) #2: total luciferase, z-score = -0.596; total luciferase, % of control = 70; activity call = inactive
DNAAF19 (dynein axonemal assembly factor 19) #3: total luciferase, z-score = 0.576; total luciferase, % of control = 93.3; activity call = inactive
AMIGO3 (adhesion molecule with Ig like domain 3) #1: total luciferase, z-score = -0.807; total luciferase, % of control = 65.8; activity call = inactive
AMIGO3 (adhesion molecule with Ig like domain 3) #2: total luciferase, z-score = 3.46; total luciferase, % of control = 151; activity call = active
AMIGO3 (adhesion molecule with Ig like domain 3) #3: total luciferase, z-score = -1.2; total luciferase, % of control = 58.1; activity call = inactive
